Binding screen against folded nucleic acids

Targets (5′ to 3′):
T1: PreQ1 riboswitch RNA pseudoknot, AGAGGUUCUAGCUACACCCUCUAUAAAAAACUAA. From B. subtilis. About 170 hits among about 24,000 compounds.
T2: SAM-II riboswitch RNA pseudoknot, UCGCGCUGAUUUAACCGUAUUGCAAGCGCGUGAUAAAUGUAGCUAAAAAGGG. About 200 hits among about 21,000 compounds.
T3: TPP riboswitch RNA three-way junction, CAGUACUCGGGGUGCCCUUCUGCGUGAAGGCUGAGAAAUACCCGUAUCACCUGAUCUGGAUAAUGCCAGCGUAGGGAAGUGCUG. About 160 hits among about 24,000 compounds.

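Compounds were printed on reactive glass slides in duplicate spots, a dye-labelled oligonucleotide was laid over them, and the fluorescence left after washing was read. The data file lists only calls. An earlier report of the laboratory on the PreQ1, TPP and SAM-II riboswitches (doi:10.1038/s41467-019-09493-3) used 1 µM RNA for 2 h and required a mean Z-score above 3 (spot signal-to-noise against the whole library), a score well above that on a control array, and duplicate spots agreeing (coefficient of variation under 100); it then also set aside compounds that hit other targets, which this list keeps. The cut-offs behind this list may differ. These are primary screening calls, not affinities; a compound without a hit may have attached poorly or may still bind in solution.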 A compound is marked active if it was called a hit and inactive if it was screened but was not. Compounds were drawn at random from those tested, without regard to their results. A dash means that no call is listed here.

SMILES,T1,T2,T3
Nc1c(C(=O)c2ccc(Cl)cc2)sc2nc(-c3ccncc3)ccc12,inactive,inactive,inactive
CCOc1cc(CNc2ccc(C(=O)O)cc2)cc(Br)c1OC,inactive,inactive,inactive
Nc1cc(=O)[nH]c(SCC(=O)Nc2cc(Cl)cc(Cl)c2)n1,inactive,inactive,inactive
COc1cccc(CCC(=O)N2CCOCC(O)C2)c1 (stereo not shown),inactive,inactive,inactive
C[C@@]1(O)CCN(C(=O)c2cncc(Cl)c2)C[C@@H]1O,inactive,inactive,inactive
CC(C)(C)n1cc(C(=O)c2ccccc2)cc1-c1ccccc1,inactive,inactive,inactive
C=CCC1(CO)CCCN(Cc2ccc(N(C)C)nc2)C1 (stereo not shown),inactive,inactive,inactive
CCn1c(N)nc2cc(C(=O)N(C)CCc3noc(C4CC4)n3)cnc21,inactive,inactive,inactive
CCc1ccc(C2C(C#N)=C(N)OC3=C2C(=O)CC(C)(C)C3)cc1 (stereo not shown),inactive,inactive,inactive
Fc1ccc(C(Nc2cccc(F)c2)c2nnc(-c3ccccc3)o2)cc1 (stereo not shown),inactive,inactive,inactive
FC(F)c1nc2ccccc2n1-c1nc(N2CCOCC2)nc(N2CCOCC2)n1,inactive,inactive,inactive
CN1CCC(=C(c2ccc(Cl)cc2)c2ccccn2)CC1.O=C(O)/C=C\C(=O)O,inactive,inactive,inactive
CN1CCN(c2cc(-c3csc4ccccc34)nc(N)n2)CC1,inactive,inactive,inactive
Cc1[nH]c(=S)[nH]c(=O)c1CCC1OCCO1,inactive,inactive,inactive
Nc1nnc(SCC(=O)NCCCCc2ccccn2)s1,inactive,inactive,inactive
Nc1nc(CCC(=O)N2C[C@@H](C(=O)O)[C@H](c3cccc(F)c3)C2)cs1,inactive,inactive,inactive
Cc1ccccc1-c1ccccc1C(=O)N1CC[C@H]2CNC[C@H]21,inactive,inactive,inactive
CC(NC(=O)c1ccc(Cl)c(Cl)c1)c1ccc(-c2ccccc2)cc1 (stereo not shown),inactive,inactive,inactive
CCc1ccc2oc(-c3ccccc3)cc(=[NH+]CCO)c2c1,inactive,inactive,inactive
COc1ccc(C2CC(C)(c3ccc(OC)cc3)Nc3ccccc3N2)cc1 (stereo not shown),inactive,inactive,inactive
Nc1cc(=O)[nH]n1C1CCCCCC1,inactive,inactive,inactive
COC(=O)CN(C)c1nnc(N)s1,inactive,-,inactive
O=C(CCCc1cn[nH]c1)N[C@@H](CO)[C@@H](O)c1ccccc1,inactive,inactive,inactive
Cc1ccccc1OCC(O)CN1C(=O)NC(C)(C)C1=O (stereo not shown),inactive,inactive,inactive
Cc1nc(C)c(C)c(N2CCCN(C)C3(CCNCC3)C2)n1,inactive,inactive,inactive
OCc1nc2ccccc2n1Cc1ccc(Cl)cc1,inactive,-,inactive
COc1ccc(C23CCC(=O)N2c2ccccc2N3)cc1 (stereo not shown),inactive,inactive,inactive
CC(C)CC(O)C(=O)NCc1ccc2sccc2c1 (stereo not shown),inactive,inactive,inactive
COc1nc(C)c(C(=O)N2CCC3(CCCN(CCO)C3=O)C2)s1 (stereo not shown),inactive,inactive,inactive
CCOC(=O)c1cnc(NCc2ccccc2F)nc1C,inactive,inactive,inactive
CCOC(=O)C1=C(N)Oc2cc(C)[nH]c(=O)c2C12C(=O)Nc1ccccc12 (stereo not shown),inactive,inactive,inactive
Nc1c(C(=O)c2ccccc2)sc2nc3c(c(-c4cccnc4)c12)CCCC3,inactive,inactive,inactive
CC[N+]1=C(C=CNc2ccccc2)SCC1C (stereo not shown),inactive,inactive,inactive
CN(Cc1cnc2ccccc2n1)C(=O)[C@H]1CNC[C@H](C(=O)N2CCOCC2)C1,inactive,inactive,inactive
COc1cc(C(C)C)c2c(c1)S(=O)(=O)N(COc1cc(=O)n3cccc(OCCN4CCCCC4)c3n1)C2=O,inactive,inactive,inactive
Cc1ccnc(Nc2nc(-c3sc(C)nc3C)cs2)c1,inactive,inactive,inactive
Cc1ccc([C@H]2CN(C(=O)Cn3nc(C)c4ccccc4c3=O)C[C@@H]2N)o1,inactive,inactive,inactive
Cn1c(=O)c2c(nc(NCCCO)n2Cc2cccc3ccccc23)n(C)c1=O,inactive,inactive,inactive
CN(C)[C@@H]1C(=O)C(C(N)=O)=C(O)[C@@]2(O)C(=O)C3=C(O)c4c(O)cccc4[C@@](C)(O)[C@H]3[C@H](O)[C@@H]12,inactive,inactive,inactive
OCC1(Cc2ccccc2)CCCN(c2ccc(-c3ccccc3)nn2)C1 (stereo not shown),inactive,inactive,inactive
Cc1c(Cl)cc(C(=O)N(C)CC2(CO)CCOCC2)cc1Cl,inactive,inactive,inactive
CC1(C)CC(N2CC(=O)C(c3nc(-c4ccccc4)cs3)=C2N)CC(C)(C)N1,inactive,-,inactive
CC(C)N[C@@H]1CC[C@@H]1NC(=O)c1ccc(C(F)(F)F)cc1C(F)(F)F,inactive,inactive,inactive
O=C(c1ccccc1NCc1ccccn1)N1CCCN2CCC[C@H]2C1,inactive,inactive,inactive
CCc1cc(Cl)ccc1NC(=O)NCC(O)CN(C)C (stereo not shown),inactive,inactive,inactive
CCOC(=O)N1CCN(c2c(NCC3CCN(Cc4cccc(C)c4)CC3)c(=O)c2=O)CC1,inactive,-,inactive
Cc1[nH]nc2c1C(c1c(F)cccc1F)C(C#N)=C(N)O2 (stereo not shown),inactive,inactive,inactive
N#CC1=C(N)Oc2c(oc(CO)cc2=O)C1c1ccc(Oc2ccccc2)c(F)c1 (stereo not shown),inactive,inactive,inactive
Cc1ccc2nc(C(=O)O)cc(Nc3ccc(N(C)C)cc3)c2c1,inactive,inactive,inactive
Cc1ccccc1Nc1nc(C2(C)CC(C(C)C)C(=O)O2)cs1 (stereo not shown),inactive,inactive,inactive

Once more, the final 6:

| SMILES | T1 | T2 | T3 |
|---|---|---|---|
| `CCc1cc(Cl)ccc1NC(=O)NCC(O)CN(C)C` (stereo not shown) | inactive | inactive | inactive |
| `CCOC(=O)N1CCN(c2c(NCC3CCN(Cc4cccc(C)c4)CC3)c(=O)c2=O)CC1` | inactive | - | inactive |
| `Cc1[nH]nc2c1C(c1c(F)cccc1F)C(C#N)=C(N)O2` (stereo not shown) | inactive | inactive | inactive |
| `N#CC1=C(N)Oc2c(oc(CO)cc2=O)C1c1ccc(Oc2ccccc2)c(F)c1` (stereo not shown) | inactive | inactive | inactive |
| `Cc1ccc2nc(C(=O)O)cc(Nc3ccc(N(C)C)cc3)c2c1` | inactive | inactive | inactive |
| `Cc1ccccc1Nc1nc(C2(C)CC(C(C)C)C(=O)O2)cs1` (stereo not shown) | inactive | inactive | inactive |

From ROBIN, a set of small-molecule microarray screens (doi:10.1002/anie.202211358).